Experimental data from paper PMC6667500.
Results are given in words; binding and its absence hold for the method and conditions named. In cells and extracts the contact can be indirect. Here binding means that the protein was enriched with, or labelled near, the bait; the list need not be complete. Sequences can lack the tags named with a protein.

Sequences of proteins named here, by UniProt entry; tags and fusion partners are left off.
UniProt O43143: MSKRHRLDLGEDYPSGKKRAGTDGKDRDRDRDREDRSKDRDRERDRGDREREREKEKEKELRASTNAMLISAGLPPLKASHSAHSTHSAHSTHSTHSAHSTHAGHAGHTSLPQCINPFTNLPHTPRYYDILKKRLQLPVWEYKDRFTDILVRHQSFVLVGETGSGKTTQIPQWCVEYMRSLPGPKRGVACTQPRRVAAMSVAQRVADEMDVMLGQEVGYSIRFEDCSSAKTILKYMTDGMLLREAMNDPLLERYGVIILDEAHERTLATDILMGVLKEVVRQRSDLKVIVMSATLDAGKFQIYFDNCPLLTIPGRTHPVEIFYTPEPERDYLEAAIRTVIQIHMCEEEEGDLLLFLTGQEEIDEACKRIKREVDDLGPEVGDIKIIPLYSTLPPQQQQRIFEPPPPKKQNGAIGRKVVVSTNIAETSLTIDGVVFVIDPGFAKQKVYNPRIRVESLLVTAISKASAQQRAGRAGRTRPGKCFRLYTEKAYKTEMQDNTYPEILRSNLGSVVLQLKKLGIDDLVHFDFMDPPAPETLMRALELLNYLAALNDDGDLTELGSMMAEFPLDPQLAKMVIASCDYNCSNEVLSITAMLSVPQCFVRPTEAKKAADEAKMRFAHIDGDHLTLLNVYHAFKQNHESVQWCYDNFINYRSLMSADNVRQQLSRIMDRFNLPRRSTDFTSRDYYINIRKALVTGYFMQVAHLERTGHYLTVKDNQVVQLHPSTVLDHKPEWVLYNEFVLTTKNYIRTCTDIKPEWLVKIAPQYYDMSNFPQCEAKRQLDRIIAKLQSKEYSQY
UniProt Q9H583: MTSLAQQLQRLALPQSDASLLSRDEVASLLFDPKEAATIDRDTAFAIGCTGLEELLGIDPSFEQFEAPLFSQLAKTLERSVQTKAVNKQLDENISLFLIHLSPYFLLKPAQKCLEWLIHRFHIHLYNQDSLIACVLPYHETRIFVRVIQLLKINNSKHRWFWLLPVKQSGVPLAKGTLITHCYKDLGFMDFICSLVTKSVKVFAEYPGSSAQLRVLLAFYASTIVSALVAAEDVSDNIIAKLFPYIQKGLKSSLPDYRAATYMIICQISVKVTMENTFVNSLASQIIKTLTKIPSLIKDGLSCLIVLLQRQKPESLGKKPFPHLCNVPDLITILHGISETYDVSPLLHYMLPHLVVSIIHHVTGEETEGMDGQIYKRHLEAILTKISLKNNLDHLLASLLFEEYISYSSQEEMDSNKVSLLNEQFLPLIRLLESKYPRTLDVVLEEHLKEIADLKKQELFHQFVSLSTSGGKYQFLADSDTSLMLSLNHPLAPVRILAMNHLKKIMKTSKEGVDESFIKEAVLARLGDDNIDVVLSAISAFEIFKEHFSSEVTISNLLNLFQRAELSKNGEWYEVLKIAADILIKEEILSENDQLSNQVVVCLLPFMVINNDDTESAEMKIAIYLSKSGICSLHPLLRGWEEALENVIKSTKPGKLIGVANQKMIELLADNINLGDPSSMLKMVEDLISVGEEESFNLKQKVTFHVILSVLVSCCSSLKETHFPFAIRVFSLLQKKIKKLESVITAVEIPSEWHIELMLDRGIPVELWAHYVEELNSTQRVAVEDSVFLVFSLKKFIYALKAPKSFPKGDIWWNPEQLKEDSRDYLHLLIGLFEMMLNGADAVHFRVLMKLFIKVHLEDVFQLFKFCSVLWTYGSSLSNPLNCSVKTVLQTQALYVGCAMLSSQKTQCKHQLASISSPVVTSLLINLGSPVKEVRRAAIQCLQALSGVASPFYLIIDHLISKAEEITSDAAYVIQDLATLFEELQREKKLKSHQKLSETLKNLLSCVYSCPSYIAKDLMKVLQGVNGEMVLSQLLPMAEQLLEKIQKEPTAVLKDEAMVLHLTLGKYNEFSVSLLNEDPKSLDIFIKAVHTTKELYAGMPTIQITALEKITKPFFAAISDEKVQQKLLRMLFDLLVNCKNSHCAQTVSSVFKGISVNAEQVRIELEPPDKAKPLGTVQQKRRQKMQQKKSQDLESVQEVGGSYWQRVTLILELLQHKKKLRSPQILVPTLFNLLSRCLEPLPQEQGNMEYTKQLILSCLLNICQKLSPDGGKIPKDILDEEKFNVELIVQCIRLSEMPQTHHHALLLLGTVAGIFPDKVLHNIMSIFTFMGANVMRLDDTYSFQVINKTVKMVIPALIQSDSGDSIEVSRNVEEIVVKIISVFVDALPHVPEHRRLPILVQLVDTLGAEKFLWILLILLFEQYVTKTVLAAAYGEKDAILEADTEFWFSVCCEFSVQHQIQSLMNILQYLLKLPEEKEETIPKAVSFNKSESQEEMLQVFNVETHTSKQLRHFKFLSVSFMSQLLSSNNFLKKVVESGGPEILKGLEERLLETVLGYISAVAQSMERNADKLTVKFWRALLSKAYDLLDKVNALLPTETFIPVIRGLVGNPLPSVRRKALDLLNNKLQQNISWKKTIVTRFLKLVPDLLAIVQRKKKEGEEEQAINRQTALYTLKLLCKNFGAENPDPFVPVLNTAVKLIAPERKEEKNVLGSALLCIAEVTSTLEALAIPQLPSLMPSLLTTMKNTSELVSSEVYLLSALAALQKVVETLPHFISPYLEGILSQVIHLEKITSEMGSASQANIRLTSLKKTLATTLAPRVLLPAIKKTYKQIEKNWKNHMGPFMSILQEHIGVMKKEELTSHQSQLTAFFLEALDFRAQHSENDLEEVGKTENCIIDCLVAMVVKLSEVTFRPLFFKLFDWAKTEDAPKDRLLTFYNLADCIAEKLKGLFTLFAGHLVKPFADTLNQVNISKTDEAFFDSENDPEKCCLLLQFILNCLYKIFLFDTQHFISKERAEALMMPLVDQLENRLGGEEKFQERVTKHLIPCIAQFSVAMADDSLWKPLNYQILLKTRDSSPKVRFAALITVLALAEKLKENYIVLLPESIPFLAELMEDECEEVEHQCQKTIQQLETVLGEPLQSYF

T1: FLAG/HA-tagged AATF (apoptosis antagonizing transcription factor) (human) (UniProt Q9NY61)
T1 sequence: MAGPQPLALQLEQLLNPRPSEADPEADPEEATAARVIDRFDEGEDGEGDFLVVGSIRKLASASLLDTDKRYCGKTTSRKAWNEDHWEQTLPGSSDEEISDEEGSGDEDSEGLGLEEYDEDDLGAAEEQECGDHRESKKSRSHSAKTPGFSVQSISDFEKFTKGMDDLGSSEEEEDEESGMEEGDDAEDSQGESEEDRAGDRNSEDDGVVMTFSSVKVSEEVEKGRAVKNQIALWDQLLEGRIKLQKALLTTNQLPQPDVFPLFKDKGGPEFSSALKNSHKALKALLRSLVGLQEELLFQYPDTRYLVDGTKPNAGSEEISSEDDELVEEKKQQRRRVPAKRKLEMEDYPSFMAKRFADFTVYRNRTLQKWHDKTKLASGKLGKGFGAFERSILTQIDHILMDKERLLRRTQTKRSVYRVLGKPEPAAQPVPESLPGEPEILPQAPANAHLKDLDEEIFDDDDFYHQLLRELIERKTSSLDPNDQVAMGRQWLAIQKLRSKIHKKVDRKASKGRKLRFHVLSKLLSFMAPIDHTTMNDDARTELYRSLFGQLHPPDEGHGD

B1: rRNA 2'-O-methyltransferase fibrillarin (FBL) (protein, UniProt P22087 1-321)
chain: MKPGFSPRGGGFGGRGGFGDRGGRGGRGGFGGGRGRGGGFRGRGRGGGGGGGGGGGGGRGGGGFHSGGNRGRGRGGKRGNQSGKNVMVEPHRHEGVFICRGKEDALVTKNLVPGESVYGEKRVSISEGDDKIEYRAWNPFRSKLAAAILGGVDQIHIKPGAKVLYLGAASGTTVSHVSDIVGPDGLVYAVEFSHRSGRDLINLAKKRTNIIPVIEDARHPHKYRMLIAMVDVIFADVAQPDQTRIVALNAHTFLRNGGHFVISIKANCIDSTASAEAVFASEVKKMQQENMKPQEQLTLEPYERDHAVVVGVYRPPPKVKN
B2: WDR43 (protein, UniProt Q15061 1-677)
chain: MAAGGGGSCDPLAPAGVPCAFSPHSQAYFALASTDGHLRVWETANNRLHQEYVPSAHLSGTCTCLAWAPARLQAKESPQRKKRKSEAVGMSNQTDLLALGTAVGSILLYSTVKGELHSKLISGGHDNRVNCIQWHQDSGCLYSCSDDKHIVEWNVQTCKVKCKWKGDNSSVSSLCISPDGKMLLSAGRTIKLWVLETKEVYRHFTGHATPVSSLMFTTIRPPNESQPFDGITGLYFLSGAVHDRLLNVWQVRSENKEKSAVMSFTVTDEPVYIDLTLSENKEEPVKLAVVCRDGQVHLFEHILNGYCKKPLTSNCTIQIATPGKGKKSTPKPIPILAAGFCSDKMSLLLVYGSWFQPTIERVALNSREPHMCLVRDISNCWAPKVETAITKVRTPVMNSEAKVLVPGIPGHHAAIKPAPPQTEQVESKRKSGGNEVSIEERLGAMDIDTHKKGKEDLQTNSFPVLLTQGLESNDFEMLNKVLQTRNVNLIKKTVLRMPLHTIIPLLQELTKRLQGHPNSAVLMVQWLKCVLTVHASYLSTLPDLVPQLGTLYQLMESRVKTFQKLSHLHGKLILLITQVTASEKTKGATSPGQKAKLVYEEESSEEESDDEIADKDSEDNWDEDEEESESEKDEDVEEEDEDAEGKDEENGEDRDTASEKELNGDSDLDPENESEEE
B3: rRNA methyltransferase Nucleolar Protein 2 Homolog (NOP2) (protein, UniProt P46087 1-812)
chain: MGRKLDPTKEKRGPGRKARKQKGAETELVRFLPAVSDENSKRLSSRARKRAAKRRLGSVEAPKTNKSPEAKPLPGKLPKGISAGAVQTAGKKGPQSLFNAPRGKKRPAPGSDEEEEEEDSEEDGMVNHGDLWGSEDDADTVDDYGADSNSEDEEEGEALLPIERAARKQKAREAAAGIQWSEEETEDEEEEKEVTPESGPPKVEEADGGLQINVDEEPFVLPPAGEMEQDAQAPDLQRVHKRIQDIVGILRDFGAQREEGRSRSEYLNRLKKDLAIYYSYGDFLLGKLMDLFPLSELVEFLEANEVPRPVTLRTNTLKTRRRDLAQALINRGVNLDPLGKWSKTGLVVYDSSVPIGATPEYLAGHYMLQGASSMLPVMALAPQEHERILDMCCAPGGKTSYMAQLMKNTGVILANDANAERLKSVVGNLHRLGVTNTIISHYDGRQFPKVVGGFDRVLLDAPCSGTGVISKDPAVKTNKDEKDILRCAHLQKELLLSAIDSVNATSKTGGYLVYCTCSITVEENEWVVDYALKKRNVRLVPTGLDFGQEGFTRFRERRFHPSLRSTRRFYPHTHNMDGFFIAKFKKFSNSIPQSQTGNSETATPTNVDLPQVIPKSENSSQPAKKAKGAAKTKQQLQKQQHPKKASFQKLNGISKGADSELSTVPSVTKTQASSSFQDSSQPAGKAEGIREPKVTGKLKQRSPKLQSSKKVAFLRQNAPPKGTDTQTPAVLSPSKTQATLKPKDHHQPLGRAKGVEKQQLPEQPFEKAAFQKQNDTPKGPQPPTVSPIRSSRPPPAKRKKSQSRGNSQLLLS

Molecular target: T1, FLAG/HA-tagged AATF (apoptosis antagonizing transcription factor) (human)
Test: affinity purification with mass spectrometry; FLAG/HA-AATF from stable inducible HEK 293T Flp-In T-REx cells captured on anti-FLAG beads (uMACS columns), modified RIPA buffer (1% NP-40, 150 mM NaCl, 0.25% sodium deoxycholate, 50 mM Tris), 2 h at 4 °C; compared with FLAG-GFP pulldown; 5 biological replicates; no RNase

Molecule	binding
DHX15 (from UniProt O43143 1-795)	binds
ribosome biogenesis factor HEAT Repeat-Containing Protein 1 (HEATR1) (from UniProt Q9H583 1-2144)	binds
B1	binds
B2	binds
B3	binds
